Assay results taken from the supplement of paper PMC10849652.
This is one part of the list.

Sequences of proteins named here, by UniProt entry; tags and fusion partners are left off. A change or cut given only in a name is not applied to a line headed by its entry.
UniProt P51812, whole entry, looked up: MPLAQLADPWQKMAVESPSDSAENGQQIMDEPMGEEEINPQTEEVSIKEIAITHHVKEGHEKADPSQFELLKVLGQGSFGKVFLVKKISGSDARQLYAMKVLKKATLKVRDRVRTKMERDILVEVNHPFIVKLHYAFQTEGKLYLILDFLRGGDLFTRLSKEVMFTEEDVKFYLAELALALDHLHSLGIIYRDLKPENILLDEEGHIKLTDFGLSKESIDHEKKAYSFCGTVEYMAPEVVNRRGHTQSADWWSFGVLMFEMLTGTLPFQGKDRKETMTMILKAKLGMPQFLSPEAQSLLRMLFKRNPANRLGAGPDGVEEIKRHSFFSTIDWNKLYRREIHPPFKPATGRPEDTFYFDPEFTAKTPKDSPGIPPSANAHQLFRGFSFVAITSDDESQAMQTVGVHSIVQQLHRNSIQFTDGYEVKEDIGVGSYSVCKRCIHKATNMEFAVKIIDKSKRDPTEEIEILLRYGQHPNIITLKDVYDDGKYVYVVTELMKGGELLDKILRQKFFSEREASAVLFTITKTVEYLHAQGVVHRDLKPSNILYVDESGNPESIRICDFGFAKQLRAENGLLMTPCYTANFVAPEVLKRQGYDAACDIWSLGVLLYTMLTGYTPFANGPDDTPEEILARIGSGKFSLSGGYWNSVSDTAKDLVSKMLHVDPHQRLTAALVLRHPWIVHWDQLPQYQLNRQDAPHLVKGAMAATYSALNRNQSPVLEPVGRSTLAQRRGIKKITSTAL
UniProt Q9Y230, whole entry, looked up: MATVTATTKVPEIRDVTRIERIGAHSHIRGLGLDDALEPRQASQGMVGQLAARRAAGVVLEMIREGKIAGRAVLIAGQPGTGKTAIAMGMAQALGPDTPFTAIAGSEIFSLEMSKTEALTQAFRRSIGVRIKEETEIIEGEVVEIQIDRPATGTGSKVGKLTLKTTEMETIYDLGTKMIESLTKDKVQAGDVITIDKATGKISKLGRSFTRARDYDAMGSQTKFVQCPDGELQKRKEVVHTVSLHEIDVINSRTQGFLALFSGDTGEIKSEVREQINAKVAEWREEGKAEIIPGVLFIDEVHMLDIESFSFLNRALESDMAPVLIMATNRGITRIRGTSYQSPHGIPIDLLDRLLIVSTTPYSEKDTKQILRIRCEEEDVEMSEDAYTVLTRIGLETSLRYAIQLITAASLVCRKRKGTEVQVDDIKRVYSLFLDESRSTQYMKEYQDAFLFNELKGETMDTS
UniProt Q7L523, whole entry, looked up: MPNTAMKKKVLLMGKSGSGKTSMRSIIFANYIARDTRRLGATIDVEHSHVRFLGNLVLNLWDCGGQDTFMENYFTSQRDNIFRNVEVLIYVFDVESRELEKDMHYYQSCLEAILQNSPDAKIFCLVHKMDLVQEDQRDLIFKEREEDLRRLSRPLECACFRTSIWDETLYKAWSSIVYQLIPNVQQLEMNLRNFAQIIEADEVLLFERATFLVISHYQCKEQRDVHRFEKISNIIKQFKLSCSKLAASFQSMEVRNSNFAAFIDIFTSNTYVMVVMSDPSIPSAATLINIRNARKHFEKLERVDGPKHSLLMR
UniProt Q01196, whole entry, looked up: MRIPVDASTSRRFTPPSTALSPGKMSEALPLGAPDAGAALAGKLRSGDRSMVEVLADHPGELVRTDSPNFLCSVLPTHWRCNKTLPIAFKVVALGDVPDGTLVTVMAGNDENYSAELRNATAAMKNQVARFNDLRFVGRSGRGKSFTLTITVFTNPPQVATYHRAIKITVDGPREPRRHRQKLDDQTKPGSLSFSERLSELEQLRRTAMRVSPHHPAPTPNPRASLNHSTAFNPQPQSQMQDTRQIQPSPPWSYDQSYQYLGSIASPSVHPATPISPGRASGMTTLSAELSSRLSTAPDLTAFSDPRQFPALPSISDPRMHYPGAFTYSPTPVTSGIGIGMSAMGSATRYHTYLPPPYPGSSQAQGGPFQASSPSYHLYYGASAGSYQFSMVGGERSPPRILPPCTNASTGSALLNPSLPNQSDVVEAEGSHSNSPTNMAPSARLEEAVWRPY
UniProt Q8N2Y8: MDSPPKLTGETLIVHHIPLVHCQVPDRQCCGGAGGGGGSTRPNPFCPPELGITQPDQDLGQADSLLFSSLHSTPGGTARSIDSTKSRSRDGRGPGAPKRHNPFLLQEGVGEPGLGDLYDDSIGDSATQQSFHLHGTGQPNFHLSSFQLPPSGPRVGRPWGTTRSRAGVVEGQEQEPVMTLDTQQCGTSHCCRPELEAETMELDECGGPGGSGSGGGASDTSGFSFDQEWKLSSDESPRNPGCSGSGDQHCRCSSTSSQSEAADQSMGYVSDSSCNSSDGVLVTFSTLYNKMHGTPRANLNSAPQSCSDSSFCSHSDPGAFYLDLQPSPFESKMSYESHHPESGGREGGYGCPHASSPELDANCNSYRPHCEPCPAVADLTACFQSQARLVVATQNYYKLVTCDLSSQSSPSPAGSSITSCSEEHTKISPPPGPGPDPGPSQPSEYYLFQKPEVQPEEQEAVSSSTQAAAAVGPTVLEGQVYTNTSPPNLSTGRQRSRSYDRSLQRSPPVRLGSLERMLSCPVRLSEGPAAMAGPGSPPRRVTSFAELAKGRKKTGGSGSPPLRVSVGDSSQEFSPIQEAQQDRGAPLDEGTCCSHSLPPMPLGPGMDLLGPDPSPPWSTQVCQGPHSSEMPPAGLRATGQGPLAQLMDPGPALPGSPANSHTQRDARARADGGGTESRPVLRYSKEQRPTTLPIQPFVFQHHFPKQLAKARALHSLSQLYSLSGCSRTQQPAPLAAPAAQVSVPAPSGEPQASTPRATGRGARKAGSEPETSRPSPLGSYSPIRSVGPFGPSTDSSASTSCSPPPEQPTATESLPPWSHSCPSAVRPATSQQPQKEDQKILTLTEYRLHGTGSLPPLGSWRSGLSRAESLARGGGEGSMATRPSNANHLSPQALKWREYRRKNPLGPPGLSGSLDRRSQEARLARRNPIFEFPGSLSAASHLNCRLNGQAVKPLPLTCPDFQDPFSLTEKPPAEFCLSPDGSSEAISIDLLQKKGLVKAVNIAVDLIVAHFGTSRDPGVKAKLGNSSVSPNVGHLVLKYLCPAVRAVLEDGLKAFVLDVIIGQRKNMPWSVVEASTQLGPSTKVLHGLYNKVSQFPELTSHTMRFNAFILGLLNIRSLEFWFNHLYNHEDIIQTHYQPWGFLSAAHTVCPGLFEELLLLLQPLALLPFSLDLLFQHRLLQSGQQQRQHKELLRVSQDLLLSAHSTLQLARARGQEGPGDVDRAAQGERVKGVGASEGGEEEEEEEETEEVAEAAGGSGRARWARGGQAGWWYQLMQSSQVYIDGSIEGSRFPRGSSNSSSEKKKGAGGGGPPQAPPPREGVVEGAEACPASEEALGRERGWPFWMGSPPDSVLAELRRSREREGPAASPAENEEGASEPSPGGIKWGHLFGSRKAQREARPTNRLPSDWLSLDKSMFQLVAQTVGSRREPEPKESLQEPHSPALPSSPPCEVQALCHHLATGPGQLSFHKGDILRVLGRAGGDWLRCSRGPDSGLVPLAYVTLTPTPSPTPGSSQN
UniProt Q9H633: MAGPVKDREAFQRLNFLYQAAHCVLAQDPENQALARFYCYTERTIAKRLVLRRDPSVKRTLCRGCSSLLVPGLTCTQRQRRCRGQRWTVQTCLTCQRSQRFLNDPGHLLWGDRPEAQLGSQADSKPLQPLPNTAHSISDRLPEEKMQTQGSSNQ
UniProt Q6NW29: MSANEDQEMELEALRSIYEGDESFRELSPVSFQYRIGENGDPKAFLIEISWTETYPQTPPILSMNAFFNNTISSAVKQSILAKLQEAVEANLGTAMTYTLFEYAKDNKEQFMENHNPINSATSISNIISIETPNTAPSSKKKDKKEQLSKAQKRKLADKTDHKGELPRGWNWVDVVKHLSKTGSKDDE
UniProt Q9BY42: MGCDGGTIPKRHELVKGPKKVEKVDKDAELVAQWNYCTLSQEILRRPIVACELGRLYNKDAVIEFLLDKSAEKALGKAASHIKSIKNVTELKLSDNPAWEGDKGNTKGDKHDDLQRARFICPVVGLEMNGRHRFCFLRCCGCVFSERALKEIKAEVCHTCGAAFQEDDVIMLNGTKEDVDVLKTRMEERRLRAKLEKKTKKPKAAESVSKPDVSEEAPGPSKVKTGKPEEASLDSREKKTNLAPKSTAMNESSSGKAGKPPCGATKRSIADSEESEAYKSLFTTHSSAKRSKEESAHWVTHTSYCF
UniProt Q9BUL9: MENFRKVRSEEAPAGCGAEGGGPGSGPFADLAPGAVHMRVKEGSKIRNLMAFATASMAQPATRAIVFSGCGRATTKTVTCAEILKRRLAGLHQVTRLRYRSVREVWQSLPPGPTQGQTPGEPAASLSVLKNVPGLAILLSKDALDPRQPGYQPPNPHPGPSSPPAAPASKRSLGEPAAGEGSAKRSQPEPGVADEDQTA
UniProt Q8N488: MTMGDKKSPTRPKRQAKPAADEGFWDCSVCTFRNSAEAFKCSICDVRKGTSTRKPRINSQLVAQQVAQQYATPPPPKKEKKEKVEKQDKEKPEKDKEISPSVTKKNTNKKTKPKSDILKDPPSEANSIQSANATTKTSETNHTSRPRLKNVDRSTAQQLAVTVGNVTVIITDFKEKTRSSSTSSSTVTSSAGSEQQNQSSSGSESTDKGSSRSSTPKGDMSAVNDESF
UniProt O75298: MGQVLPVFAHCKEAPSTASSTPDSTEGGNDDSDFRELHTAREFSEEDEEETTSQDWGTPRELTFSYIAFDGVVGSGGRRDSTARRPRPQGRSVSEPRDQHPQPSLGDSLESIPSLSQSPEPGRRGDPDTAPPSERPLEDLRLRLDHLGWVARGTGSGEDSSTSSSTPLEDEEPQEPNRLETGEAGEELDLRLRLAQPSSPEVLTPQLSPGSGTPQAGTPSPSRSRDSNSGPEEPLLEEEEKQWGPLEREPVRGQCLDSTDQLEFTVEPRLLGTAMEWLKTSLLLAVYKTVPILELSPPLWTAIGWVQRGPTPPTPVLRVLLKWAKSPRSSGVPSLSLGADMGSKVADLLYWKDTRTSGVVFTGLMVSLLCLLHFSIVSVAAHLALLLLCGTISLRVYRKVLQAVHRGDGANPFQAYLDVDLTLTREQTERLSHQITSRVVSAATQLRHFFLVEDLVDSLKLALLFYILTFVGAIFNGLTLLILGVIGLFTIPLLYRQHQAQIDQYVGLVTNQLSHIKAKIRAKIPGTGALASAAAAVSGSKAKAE
UniProt P04843: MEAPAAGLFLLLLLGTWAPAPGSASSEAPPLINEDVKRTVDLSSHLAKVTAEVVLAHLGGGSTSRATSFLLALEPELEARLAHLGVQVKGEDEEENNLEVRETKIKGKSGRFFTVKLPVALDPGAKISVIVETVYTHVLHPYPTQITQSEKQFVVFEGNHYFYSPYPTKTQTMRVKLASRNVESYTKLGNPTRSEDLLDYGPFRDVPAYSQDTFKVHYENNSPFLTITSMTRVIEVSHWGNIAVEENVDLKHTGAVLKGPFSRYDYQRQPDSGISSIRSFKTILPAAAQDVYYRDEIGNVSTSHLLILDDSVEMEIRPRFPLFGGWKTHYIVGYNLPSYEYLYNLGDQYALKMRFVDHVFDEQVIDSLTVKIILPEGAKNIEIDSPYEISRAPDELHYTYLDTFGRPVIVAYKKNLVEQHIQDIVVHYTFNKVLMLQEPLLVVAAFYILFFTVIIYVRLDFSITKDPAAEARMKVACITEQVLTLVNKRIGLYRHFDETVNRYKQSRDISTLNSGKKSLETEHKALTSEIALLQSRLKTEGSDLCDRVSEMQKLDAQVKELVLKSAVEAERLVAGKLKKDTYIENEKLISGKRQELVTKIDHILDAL
UniProt P05387, whole entry, looked up: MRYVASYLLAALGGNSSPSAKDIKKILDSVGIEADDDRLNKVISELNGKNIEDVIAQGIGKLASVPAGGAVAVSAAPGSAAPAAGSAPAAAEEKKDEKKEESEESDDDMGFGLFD
UniProt Q9Y3B9: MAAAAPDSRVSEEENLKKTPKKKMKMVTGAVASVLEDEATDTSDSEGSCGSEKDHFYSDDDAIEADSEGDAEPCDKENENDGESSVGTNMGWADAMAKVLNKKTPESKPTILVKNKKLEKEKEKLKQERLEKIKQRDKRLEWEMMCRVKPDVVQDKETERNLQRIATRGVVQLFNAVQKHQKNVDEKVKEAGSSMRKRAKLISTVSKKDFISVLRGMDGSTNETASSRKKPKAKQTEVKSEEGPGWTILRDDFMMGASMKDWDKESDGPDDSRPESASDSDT
UniProt Q9Y265, whole entry, looked up: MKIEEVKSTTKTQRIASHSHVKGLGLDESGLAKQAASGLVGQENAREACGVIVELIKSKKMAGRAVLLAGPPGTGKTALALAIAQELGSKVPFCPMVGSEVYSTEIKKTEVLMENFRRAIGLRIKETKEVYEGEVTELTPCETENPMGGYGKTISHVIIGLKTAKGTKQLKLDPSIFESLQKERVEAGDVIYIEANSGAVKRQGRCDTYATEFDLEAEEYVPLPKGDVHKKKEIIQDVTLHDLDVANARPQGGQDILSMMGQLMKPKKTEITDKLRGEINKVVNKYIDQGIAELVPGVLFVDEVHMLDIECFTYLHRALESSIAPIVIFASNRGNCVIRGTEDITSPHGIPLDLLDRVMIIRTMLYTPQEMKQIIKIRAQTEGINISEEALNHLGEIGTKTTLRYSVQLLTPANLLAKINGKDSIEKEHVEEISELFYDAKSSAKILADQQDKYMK

Tests used:
Assay in all cases: log2 fold change, soluble protein after heating vs DMSO (PISA); higher = thermal stabilisation; K562 lysate, 10 uM; active = over 0.2 and 3.5 SD of the protein, either way, in both replicates (recomputed)
[1] = compound: C1=CC=C(C=C1)[C@H](COC2=CC3=C(C=C2)NC(=O)N3)NC(=O)C4=CC=CN(C4=O)CC5=CC(=C(C=C5)F)F
Procedure, shortened: (§1)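 Following dounce homogenisation of K562 pellets in PBS pH 7.4 with 1 mM MgCl2, crude extract at 1 mg/mL protein was incubated for 30 min with 10 μM compound. Aliquots were then heated for 3 min over 48°C-58°C and pooled, NP-40 was added to 0.5% at 4°C, and soluble protein was recovered as the supernatant at 21,000xg for 90 min. Channel-sum-equalised TMTpro 16plex LC-MS/MS quantified this protein. Each value, from duplicates, is a log-two fold change in thermal stability relative to solvent controls.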

[2] = compound: CC1=C(SC2=C1C(=N[C@H](C3=NN=C(N32)C)CC(=O)N)C4=CC=C(C=C4)Cl)C
Procedure, shortened: as §1

[3] = compound: CC1=C2C(=CC=C1)N=C(N(C2=O)C3=CC=CC=C3C)CN4C=NC5=C(N=CN=C54)N
Procedure, shortened: as §1

[4] = compound: Cc1sc2c(c1C)C(c1ccc(Cl)cc1)=N[C@@H](CC(=O)OC(C)(C)C)c1nnc(C)n1-2
Procedure, shortened: as §1

[5] = compound: c1ccc([C@@H]2C[C@H]2NC2CCNCC2)cc1
Procedure, shortened: as §1

Measured: log2 fold change

RPS6KA3 (UniProt P51812)
inactive: [1] -0.049 | [2] -0.031 | [3] -0.008 | [4] 0.009 | [5] -0.061

RUVBL2 (UniProt Q9Y230)
inactive: [1] 0.012 | [2] 0.002 | [3] 0.01 | [4] 0 | [5] 0.001

RRAGA (UniProt Q7L523)
inactive: [1] 0.024 | [2] -0.039 | [3] 0.01 | [4] -0.045 | [5] -0.036

RUNX1 isoform 8 (UniProt Q01196)
inactive: [1] -0.235 | [2] -0.032 | [3] 0.024 | [4] -0.021 | [5] -0.027

RPS26P11 (UniProt Q5JNZ5)
inactive: [1] -0.001 | [2] 0.031 | [3] 0.05 | [4] -0.033
active: [5] -0.31

RPS7 (UniProt P62081)
inactive: [1] 0.003 | [2] -0.012 | [3] -0.009 | [4] 0.007 | [5] 0.071

RSPRY1 (UniProt Q96DX4)
inactive: [1] 0.031 | [2] 0.012 | [3] 0.023 | [4] -0.037 | [5] -0.013

RRP9 (UniProt O43818)
inactive: [1] -0.009 | [2] 0.02 | [3] -0.042 | [4] 0.039 | [5] -0.024

RPS13 (UniProt P62277)
inactive: [1] -0.013 | [2] 0.032 | [3] -0.04 | [4] 0.079 | [5] 0.048

RTN4 (UniProt Q9NQC3)
inactive: [1] -0.026 | [2] 0.003 | [3] -0.005 | [4] -0.03 | [5] -0.057

RUSC2 (UniProt Q8N2Y8)
inactive: [1] -0.178 | [2] 0.097 | [3] 0.059 | [4] 0.157 | [5] 0.113

RPS21 (UniProt P63220)
inactive: [1] -0.002 | [2] 0.009 | [3] 0.001 | [4] -0.034 | [5] -0.035

RTCB (UniProt Q9Y3I0)
inactive: [1] 0.009 | [2] 0.036 | [3] 0.014 | [4] 0.025 | [5] 0.034

RSL1D1 (UniProt O76021)
inactive: [1] 0.021 | [2] -0.002 | [3] -0.018 | [4] 0.066 | [5] 0.023

RPL37A (UniProt P61513)
inactive: [1] -0.009 | [2] 0 | [3] -0.031 | [4] 0.191 | [5] 0.166

RPS23 (UniProt P62266)
inactive: [1] 0.019 | [2] 0.038 | [3] -0.01 | [4] 0.053 | [5] 0.057

RPP21 isoform 4 (UniProt Q9H633)
inactive: [1] 0.016 | [2] 0.108 | [3] -0.001 | [4] 0.056 | [5] -0.01

RPL38 (UniProt P63173)
inactive: [1] 0 | [2] 0.024 | [3] 0.01 | [4] 0.012 | [5] 0.008

RPS17 (UniProt P08708)
inactive: [1] 0.008 | [2] -0.012 | [3] 0.003 | [4] 0.022 | [5] 0.061

RPL7 (UniProt P18124)
inactive: [1] -0.003 | [2] 0.014 | [3] -0.008 | [4] 0.009 | [5] 0.006

RWDD4 (UniProt Q6NW29)
inactive: [1] 0.039 | [2] -0.089 | [3] -0.029 | [4] 0.033 | [5] -0.008

RPLP0 (UniProt P05388)
inactive: [1] 0.009 | [2] 0.038 | [3] 0 | [4] -0.014 | [5] 0.023

RTF2 (UniProt Q9BY42)
inactive: [1] 0.052 | [2] 0.021 | [3] 0.127 | [4] 0.007 | [5] -0.041

RPP25 (UniProt Q9BUL9)
inactive: [1] 0.09 | [2] -0.1 | [3] 0.142 | [4] 0.106 | [5] 0.013

RYBP (UniProt Q8N488)
inactive: [1] 0.119 | [2] -0.026 | [3] -0.023 | [4] -0.021 | [5] -0.133

RRM2B isoform 6 (UniProt Q7LG56)
inactive: [1] 0.054 | [2] -0.003 | [3] -0.02 | [4] -0.009 | [5] -0.04

RRS1 (UniProt Q15050)
inactive: [1] 0.036 | [2] -0.007 | [3] -0.007 | [4] 0.009 | [5] 0.023

RSAD1 (UniProt Q9HA92)
inactive: [1] -0.001 | [2] 0.111 | [3] 0.113 | [4] -0.078 | [5] -0.281

RUFY3 isoform 3 (UniProt Q7L099)
inactive: [1] 0.007 | [2] -0.063 | [3] 0.013 | [4] -0.036 | [5] -0.001

RTN2 (UniProt O75298)
inactive: [1] -0.133 | [2] 0.065 | [3] -0.001 | [4] 0.004 | [5] -0.008

RSBN1L (UniProt Q6PCB5)
inactive: [1] 0.012 | [2] -0.015 | [3] 0.006 | [4] -0.026 | [5] -0.04

RPL7L1 (UniProt Q6DKI1)
inactive: [1] 0.001 | [2] 0.044 | [3] 0 | [4] 0.047 | [5] 0.017

RPL37 (UniProt P61927)
inactive: [1] 0.057 | [2] 0.045 | [3] -0.009 | [4] -0.019 | [5] -0.022

RPS9 (UniProt P46781)
inactive: [1] 0.003 | [2] 0.038 | [3] -0.007 | [4] 0.1 | [5] 0.124

RRAS2 (UniProt P62070)
inactive: [1] -0.021 | [2] 0.013 | [3] -0.037 | [4] -0.033 | [5] 0.016

RRAGB (UniProt Q5VZM2)
inactive: [1] 0.083 | [2] 0.003 | [3] -0.037 | [4] -0.062 | [5] 0.013

RPS24 isoform 4 (UniProt P62847)
inactive: [1] 0.04 | [2] -0.005 | [3] 0.009 | [4] -0.043 | [5] 0.021

RPL4 (UniProt P36578)
inactive: [1] 0.043 | [2] 0.009 | [3] 0.016 | [4] 0.018 | [5] 0.029

RPN1 (UniProt P04843)
inactive: [1] -0.025 | [2] 0.016 | [3] 0.028 | [4] -0.021 | [5] 0

RPLP0P6 (UniProt Q8NHW5)
inactive: [1] 0.052 | [2] -0.038 | [3] -0.002 | [4] -0.026 | [5] -0.027

RPP25L (UniProt Q8N5L8)
inactive: [1] 0.097 | [2] 0.002 | [3] 0.046 | [4] 0.088 | [5] -0.012

RPS28 (UniProt P62857)
inactive: [1] 0.132 | [2] -0.123 | [3] 0.007 | [4] -0.039 | [5] -0.035

RRP1B (UniProt Q14684)
inactive: [1] -0.024 | [2] -0.015 | [3] 0.066 | [4] -0.013 | [5] 0.031

RPS12 (UniProt P25398)
inactive: [1] 0.021 | [2] -0.04 | [3] -0.001 | [4] 0.014 | [5] -0.042

RPS10 (UniProt P46783)
inactive: [1] 0.053 | [2] -0.001 | [3] 0.039 | [4] 0.016 | [5] 0.001

RUFY1 (UniProt Q96T51)
inactive: [1] 0.014 | [2] -0.012 | [3] -0.024 | [4] -0.05 | [5] -0.009

RPLP2 (UniProt P05387)
inactive: [1] 0.017 | [2] -0.059 | [3] -0.017 | [4] -0.026 | [5] 0.023

RRP15 (UniProt Q9Y3B9)
inactive: [1] 0.087 | [2] 0.003 | [3] 0.038 | [4] 0.006 | [5] 0.01

RPS5 (UniProt P46782)
inactive: [1] 0.005 | [2] 0.029 | [3] -0.033 | [4] 0.055 | [5] 0.066

RPS4X (UniProt P62701)
inactive: [1] 0.02 | [2] 0.029 | [3] -0.009 | [4] 0.044 | [5] 0.066

RUVBL1 (UniProt Q9Y265)
inactive: [1] 0 | [2] 0.014 | [3] 0.013 | [4] 0.006 | [5] 0.031

RPS25 (UniProt P62851)
inactive: [1] -0.023 | [2] 0.025 | [3] -0.001 | [4] 0.017 | [5] 0.003

RPSA (UniProt P08865)
inactive: [1] 0.009 | [2] 0.022 | [3] 0.008 | [4] 0.064 | [5] 0.023
